Test results from patent US8367084B2, “Oily base for a cosmetic and cosmetic comprising the same” (Kokyu Alcohol Kogyo Co., Ltd., priority 2009, dated 2013).

Tested on: inner side of the upper arm
Assay: Adhesion ability of the ester compound, evaluated by twenty panels
Format: in vivo
Conditions: for Adhesion ability: 0.1 g ester compound applied to the inner side of the upper arm, twenty panels; for adhesion to the skin / adhesion ability (in words): ester compound

Compound	Adhesion ability	adhesion to the skin / adhesion ability (in words)
CCCCC(CC)C(=O)OCC(COC(=O)C(CC)CCCC)(COC(=O)C(CC)CCCC)COC(=O)C(CC)CCCC (stereo not shown) [Com. Prep. Ex. 2, pentaerythrityl tetraethylhexanoate]	B (not more than five panels evaluated the cosmetic as “good adhesion ability”)	poor
pentaerythrityl tetraisostearate [Com. Prep. Ex. 3]	M (from 6 to 9 panels evaluated the compound as “good adhesion ability”)	not good
